From paper PMC11719499 (International Journal of Molecular Sciences, 2024)

Conditions: class from logPe in PAMPA-BBB

**Q.** Which “Prediction of penetration to the CNS” value does the source give for NS(=O)(=O)c1cc(C(=O)O)c(NCc2ccco2)cc1Cl [Furosemide, furosemide, reference compound] here?
**A.** The value was “CNS − (− is not detected in acceptor or logPe < −6.0)”.
